Experimental data as given in article PMC5460038.

Amino acid sequences for entries named in this document (tags omitted).
UniProt Q5MNZ9: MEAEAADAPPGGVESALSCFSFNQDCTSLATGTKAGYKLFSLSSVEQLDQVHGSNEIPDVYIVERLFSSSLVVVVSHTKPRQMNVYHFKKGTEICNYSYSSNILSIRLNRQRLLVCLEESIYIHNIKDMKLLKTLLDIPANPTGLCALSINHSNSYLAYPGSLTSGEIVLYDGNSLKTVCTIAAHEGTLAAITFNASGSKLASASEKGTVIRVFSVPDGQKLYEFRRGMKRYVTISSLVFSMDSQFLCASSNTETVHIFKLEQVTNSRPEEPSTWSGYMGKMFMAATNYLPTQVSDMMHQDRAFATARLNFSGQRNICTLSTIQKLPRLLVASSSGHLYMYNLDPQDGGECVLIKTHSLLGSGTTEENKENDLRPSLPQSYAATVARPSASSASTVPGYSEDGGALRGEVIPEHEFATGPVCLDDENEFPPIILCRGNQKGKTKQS
UniProt Q5MNZ6: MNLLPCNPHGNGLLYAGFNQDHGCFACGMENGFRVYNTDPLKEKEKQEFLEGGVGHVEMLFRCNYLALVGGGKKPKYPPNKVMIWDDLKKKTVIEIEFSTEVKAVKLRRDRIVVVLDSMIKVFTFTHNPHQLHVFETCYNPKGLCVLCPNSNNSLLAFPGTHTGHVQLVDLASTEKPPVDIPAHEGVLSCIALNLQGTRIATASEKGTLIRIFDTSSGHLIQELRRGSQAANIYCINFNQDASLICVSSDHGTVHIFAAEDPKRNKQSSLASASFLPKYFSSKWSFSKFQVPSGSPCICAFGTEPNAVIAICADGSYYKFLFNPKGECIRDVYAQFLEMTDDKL
UniProt Q9Y484: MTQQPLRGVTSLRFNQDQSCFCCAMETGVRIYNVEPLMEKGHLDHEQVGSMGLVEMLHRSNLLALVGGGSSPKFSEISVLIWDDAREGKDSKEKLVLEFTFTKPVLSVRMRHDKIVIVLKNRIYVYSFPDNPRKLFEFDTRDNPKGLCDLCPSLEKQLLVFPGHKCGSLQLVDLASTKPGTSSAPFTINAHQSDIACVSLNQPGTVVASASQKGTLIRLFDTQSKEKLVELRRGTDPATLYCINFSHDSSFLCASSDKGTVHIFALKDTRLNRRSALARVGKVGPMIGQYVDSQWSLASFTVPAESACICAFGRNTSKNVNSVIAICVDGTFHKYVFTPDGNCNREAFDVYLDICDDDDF
UniProt Q2TAZ0: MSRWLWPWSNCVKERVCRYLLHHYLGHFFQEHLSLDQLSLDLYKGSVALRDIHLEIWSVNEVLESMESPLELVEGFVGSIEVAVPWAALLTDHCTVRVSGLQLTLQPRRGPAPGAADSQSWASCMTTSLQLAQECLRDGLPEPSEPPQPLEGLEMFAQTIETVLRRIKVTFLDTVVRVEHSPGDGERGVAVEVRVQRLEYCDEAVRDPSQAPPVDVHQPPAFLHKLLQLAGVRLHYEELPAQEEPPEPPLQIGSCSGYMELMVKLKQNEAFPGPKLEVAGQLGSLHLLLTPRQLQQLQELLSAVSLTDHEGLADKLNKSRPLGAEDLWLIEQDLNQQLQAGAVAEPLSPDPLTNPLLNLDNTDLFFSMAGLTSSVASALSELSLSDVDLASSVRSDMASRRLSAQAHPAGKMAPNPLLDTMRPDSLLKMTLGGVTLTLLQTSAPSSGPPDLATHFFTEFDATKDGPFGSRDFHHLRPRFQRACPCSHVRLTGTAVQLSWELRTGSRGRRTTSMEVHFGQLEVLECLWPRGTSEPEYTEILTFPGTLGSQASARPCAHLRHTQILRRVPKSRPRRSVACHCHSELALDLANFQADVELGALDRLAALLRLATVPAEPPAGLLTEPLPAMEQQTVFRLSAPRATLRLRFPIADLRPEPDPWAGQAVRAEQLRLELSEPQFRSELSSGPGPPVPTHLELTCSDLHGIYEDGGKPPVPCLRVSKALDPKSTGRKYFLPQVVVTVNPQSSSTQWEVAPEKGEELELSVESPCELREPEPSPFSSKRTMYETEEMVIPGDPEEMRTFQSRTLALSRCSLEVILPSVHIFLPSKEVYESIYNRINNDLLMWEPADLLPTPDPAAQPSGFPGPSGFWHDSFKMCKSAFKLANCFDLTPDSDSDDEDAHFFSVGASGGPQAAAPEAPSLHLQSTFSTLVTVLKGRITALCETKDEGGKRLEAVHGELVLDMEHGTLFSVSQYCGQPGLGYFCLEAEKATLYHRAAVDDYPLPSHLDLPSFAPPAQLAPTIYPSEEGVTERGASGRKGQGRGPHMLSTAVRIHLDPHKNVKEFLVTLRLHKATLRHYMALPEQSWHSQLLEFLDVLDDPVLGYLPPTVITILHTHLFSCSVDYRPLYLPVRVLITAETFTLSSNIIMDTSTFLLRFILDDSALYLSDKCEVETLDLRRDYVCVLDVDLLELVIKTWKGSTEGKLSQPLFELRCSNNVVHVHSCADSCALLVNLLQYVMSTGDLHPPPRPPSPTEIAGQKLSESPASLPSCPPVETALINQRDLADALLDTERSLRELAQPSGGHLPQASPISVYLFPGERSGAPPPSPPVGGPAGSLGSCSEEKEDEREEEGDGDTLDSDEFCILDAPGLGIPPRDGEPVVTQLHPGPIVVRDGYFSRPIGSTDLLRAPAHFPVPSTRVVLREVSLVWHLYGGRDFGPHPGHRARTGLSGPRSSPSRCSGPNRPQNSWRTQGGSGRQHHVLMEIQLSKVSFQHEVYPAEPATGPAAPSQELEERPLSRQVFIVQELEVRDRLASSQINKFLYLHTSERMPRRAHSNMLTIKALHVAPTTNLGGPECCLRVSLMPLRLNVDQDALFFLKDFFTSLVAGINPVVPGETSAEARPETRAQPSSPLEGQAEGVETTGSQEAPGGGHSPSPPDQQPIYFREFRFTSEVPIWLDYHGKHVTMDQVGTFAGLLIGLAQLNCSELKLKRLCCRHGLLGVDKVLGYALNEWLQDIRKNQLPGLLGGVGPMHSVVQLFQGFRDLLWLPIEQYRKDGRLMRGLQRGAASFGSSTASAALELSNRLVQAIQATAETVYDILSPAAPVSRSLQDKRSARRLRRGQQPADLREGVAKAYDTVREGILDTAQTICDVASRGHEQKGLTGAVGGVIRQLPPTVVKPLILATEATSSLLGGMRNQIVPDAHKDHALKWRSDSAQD
UniProt Q9Y266: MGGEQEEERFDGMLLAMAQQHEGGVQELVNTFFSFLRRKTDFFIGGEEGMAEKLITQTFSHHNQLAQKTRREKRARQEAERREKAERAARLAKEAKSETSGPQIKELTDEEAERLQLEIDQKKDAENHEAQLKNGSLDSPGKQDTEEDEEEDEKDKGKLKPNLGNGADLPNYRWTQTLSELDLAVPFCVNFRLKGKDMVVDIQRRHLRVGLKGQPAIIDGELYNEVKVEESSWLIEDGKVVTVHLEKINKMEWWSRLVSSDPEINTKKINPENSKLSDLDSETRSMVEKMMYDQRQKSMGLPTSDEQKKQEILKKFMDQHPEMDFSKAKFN
UniProt Q96BY7: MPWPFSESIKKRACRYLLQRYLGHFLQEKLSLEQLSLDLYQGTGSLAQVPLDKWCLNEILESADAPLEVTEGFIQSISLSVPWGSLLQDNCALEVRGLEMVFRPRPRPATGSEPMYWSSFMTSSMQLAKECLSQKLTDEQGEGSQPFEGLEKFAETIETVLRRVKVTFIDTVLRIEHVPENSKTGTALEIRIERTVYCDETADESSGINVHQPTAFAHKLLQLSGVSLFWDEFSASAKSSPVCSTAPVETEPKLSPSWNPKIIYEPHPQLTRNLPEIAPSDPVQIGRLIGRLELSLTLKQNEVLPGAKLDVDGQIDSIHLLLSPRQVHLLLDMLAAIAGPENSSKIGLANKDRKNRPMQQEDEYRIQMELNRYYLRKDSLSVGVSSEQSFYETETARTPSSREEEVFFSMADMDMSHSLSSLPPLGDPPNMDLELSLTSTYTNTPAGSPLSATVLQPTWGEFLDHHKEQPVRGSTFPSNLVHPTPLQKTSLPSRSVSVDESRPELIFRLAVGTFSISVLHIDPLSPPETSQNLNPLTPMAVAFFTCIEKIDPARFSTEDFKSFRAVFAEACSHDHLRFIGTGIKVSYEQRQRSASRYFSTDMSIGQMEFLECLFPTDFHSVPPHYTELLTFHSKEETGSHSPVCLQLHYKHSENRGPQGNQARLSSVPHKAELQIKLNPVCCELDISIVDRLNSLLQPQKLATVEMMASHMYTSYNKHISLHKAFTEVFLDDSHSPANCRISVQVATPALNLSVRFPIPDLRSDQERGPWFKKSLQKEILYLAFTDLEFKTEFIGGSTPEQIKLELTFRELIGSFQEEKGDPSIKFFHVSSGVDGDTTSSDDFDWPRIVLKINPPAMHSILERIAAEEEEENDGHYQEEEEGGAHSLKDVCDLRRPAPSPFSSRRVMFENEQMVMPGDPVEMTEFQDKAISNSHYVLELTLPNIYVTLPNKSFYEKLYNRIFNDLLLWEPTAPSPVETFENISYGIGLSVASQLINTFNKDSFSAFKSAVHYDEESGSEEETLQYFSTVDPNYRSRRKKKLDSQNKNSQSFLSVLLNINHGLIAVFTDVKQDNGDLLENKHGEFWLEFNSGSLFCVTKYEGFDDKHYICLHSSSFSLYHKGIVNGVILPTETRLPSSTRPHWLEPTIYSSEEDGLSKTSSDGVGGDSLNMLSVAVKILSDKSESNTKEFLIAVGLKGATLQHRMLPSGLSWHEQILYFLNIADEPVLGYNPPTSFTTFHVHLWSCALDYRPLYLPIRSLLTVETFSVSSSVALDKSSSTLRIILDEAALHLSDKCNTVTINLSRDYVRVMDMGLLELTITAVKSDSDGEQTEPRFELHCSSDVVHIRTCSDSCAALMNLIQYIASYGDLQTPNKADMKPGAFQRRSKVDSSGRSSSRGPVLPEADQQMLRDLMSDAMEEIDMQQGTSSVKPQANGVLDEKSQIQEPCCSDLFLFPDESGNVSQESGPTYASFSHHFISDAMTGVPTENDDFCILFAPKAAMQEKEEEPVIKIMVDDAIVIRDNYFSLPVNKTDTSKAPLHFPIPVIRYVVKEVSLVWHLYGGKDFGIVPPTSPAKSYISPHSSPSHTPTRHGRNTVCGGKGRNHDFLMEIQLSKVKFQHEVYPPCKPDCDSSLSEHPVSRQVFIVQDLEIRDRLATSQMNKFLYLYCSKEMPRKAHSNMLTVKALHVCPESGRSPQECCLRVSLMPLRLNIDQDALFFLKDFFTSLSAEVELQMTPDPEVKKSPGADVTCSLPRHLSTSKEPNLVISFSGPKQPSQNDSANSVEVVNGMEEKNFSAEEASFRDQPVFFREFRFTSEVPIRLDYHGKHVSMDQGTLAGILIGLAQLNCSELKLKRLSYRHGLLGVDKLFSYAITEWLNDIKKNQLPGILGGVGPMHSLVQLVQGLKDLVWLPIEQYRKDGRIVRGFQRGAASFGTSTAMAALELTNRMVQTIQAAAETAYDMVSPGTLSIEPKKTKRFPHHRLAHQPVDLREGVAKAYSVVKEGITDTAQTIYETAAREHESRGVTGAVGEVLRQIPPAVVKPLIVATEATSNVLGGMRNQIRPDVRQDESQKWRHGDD

Columns and labels:
Experiment in all cases: affinity purification with mass spectrometry; anti-GFP immunoprecipitation from monoclonal U2OS cell lines stably expressing GFP-WIPI proteins or GFP alone, nano LC-MS/MS
GFP-WIPI1 (human) = GFP-WIPI1 (human) (UniProt Q5MNZ9)
GFP-WIPI3 (human) [1] = molecular target: GFP-WIPI3 (human) (UniProt Q5MNZ6)
GFP-WIPI4 (human) = GFP-WIPI4 (human) (UniProt Q9Y484)
GFP-WIPI3 (human) [2] = molecular target: GFP-WIPI3 (human) (UniProt Q5MNZ6); remark: listed apart in the source

| binding (GFP-WIPI1 (human)) | binding (GFP-WIPI3 (human) [1]) | binding (GFP-WIPI4 (human)) | binding (GFP-WIPI3 (human) [2]) | Molecule |
| --- | --- | --- | --- | --- |
|  |  | binds |  | ATG2A (endogenous, identified by MS) (from UniProt Q2TAZ0 1-1938) |
|  |  |  | binds | endogenous TSC1 (protein, UniProt Q92574 1-1164) MAQQANVGELLAMLDSPMLGVRDDVTAVFKENLNSDRGPMLVNTLVDYYLETSSQPALHILTTLQEPHDKHLLDRINEYVGKAATRLSILSLLGHVIRLQPSWKHKLSQAPLLPSLLKCLKMDTDVVVLTTGVLVLITMLPMIPQSGKQHLLDFFDIFGRLSSWCLKKPGHVAEVYLVHLHASVYALFHRLYGMYPCNFVSFLRSHYSMKENLETFEEVVKPMMEHVRIHPELVTGSKDHELDPRRWKRLETHDVVIECAKISLDPTEASYEDGYSVSHQISARFPHRSADVTTSPYADTQNSYGCATSTPYSTSRLMLLNMPGQLPQTLSSPSTRLITEPPQATLWSPSMVCGMTTPPTSPGNVPPDLSHPYSKVFGTTAGGKGTPLGTPATSPPPAPLCHSDDYVHISLPQATVTPPRKEERMDSARPCLHRQHHLLNDRGSEEPPGSKGSVTLSDLPGFLGDLASEEDSIEKDKEEAAISRELSEITTAEAEPVVPRGGFDSPFYRDSLPGSQRKTHSAASSSQGASVNPEPLHSSLDKLGPDTPKQAFTPIDLPCGSADESPAGDRECQTSLETSIFTPSPCKIPPPTRVGFGSGQPPPYDHLFEVALPKTAHHFVIRKTEELLKKAKGNTEEDGVPSTSPMEVLDRLIQQGADAHSKELNKLPLPSKSVDWTHFGGSPPSDEIRTLRDQLLLLHNQLLYERFKRQQHALRNRRLLRKVIKAAALEEHNAAMKDQLKLQEKDIQMWKVSLQKEQARYNQLQEQRDTMVTKLHSQIRQLQHDREEFYNQSQELQTKLEDCRNMIAELRIELKKANNKVCHTELLLSQVSQKLSNSESVQQQMEFLNRQLLVLGEVNELYLEQLQNKHSDTTKEVEMMKAAYRKELEKNRSHVLQQTQRLDTSQKRILELESHLAKKDHLLLEQKKYLEDVKLQARGQLQAAESRYEAQKRITQVFELEILDLYGRLEKDGLLKKLEEEKAEAAEAAEERLDCCNDGCSDSMVGHNEEASGHNGETKTPRPSSARGSSGSRGGGGSSSSSSELSTPEKPPHQRAGPFSSRWETTMGEASASIPTTVGSLPSSKSFLGMKARELFRNKSESQCDEDGMTSSLSESLKTELGKDLGVEAKIPLNLDGPHPSPPTPDSVGQLHIMDYNETHHEHS |

Continued, molecule first:

| Molecule | binding (GFP-WIPI1 (human)) | binding (GFP-WIPI3 (human) [1]) | binding (GFP-WIPI4 (human)) | binding (GFP-WIPI3 (human) [2]) |
| --- | --- | --- | --- | --- |
| endogenous NudC (from UniProt Q9Y266 1-331) | binds | no binding | binds |  |
| ATG2B (endogenous, identified by MS) (from UniProt Q96BY7 1-2078) |  |  | binds |  |

Read-outs that look alike come from different tables or passages of the source. These are yes or no findings as the source states them, for the method shown. Binding seen in cells or lysates may run through a third protein. These calls come from enrichment with a bait or labelling near it, and not all partners need be listed. For part of these data: A no says only that the protein was not detected with the bait.
